# Laboratory results taken from PubChem BioAssay AID504466 (National Center for Advancing Translational Sciences (NCATS), 2011).
# Among all 330,000 compounds or so, about 4,200 (1.3%) were called active. Another 6% or so got no clear call; they are omitted. Calls come from the whole dose curve; as a rule, active = well fitted activation curve with a large enough effect; inconclusive = small, poorly fitted or top-dose-only effect; inactive = no such curve, though single readings can be large or run the other way. Only a part is listed here, and it is no random draw. The source gives no active or inactive call for entries shown without one.
# Test: qHTS screen for small molecules that induce genotoxicity in human embryonic kidney (HEK293T) cells expressing luciferase-tagged ELG1; note: nearly all actives have a fitted effect of over 60% in size; for activity change, positive = activation: % of control where 0% means no effect
# Conditions: HEK293T ELG1-luciferase reporter, luminescence, 16 h; activity change, positive = activation: at 46 µM (top of the series)
# In short: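 DMSO vehicle served as control against compound-treated ELG1-luciferase HEK293T cells; exposure lasted 16 hr at 37 °C and 5% CO2, followed by ONE-Glo luminescence detection after 30 min.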
# Potency is the fitted concentration of half-maximal effect.
SMILES,"activity change, positive = activation",Potency
COc1ccc(NS(=O)(=O)c2ccc(NC(C)=O)cc2)cc1OC,29.1%,–
O=C(Nc1cccnc1)c1cc2cc(Br)ccc2o1,–,active: 5.17 µM
O=C(C1CCC(Cn2c(=S)[nH]c3ccccc3c2=O)CC1)N1CCN(c2ccccn2)CC1 (configuration not stated),inactive: -20.1%,–
COc1cc2c(cc1OC)C(C)N(C(=O)c1cc3c(C)cc(C)cc3[nH]1)CC2 (configuration not stated),inactive: -22.4%,–
Cc1ccc(NC(=O)COC(=O)c2ccc([N+](=O)[O-])o2)cc1S(=O)(=O)N1CCCCCC1,3.15%,–
COc1ccc2c(c1)c(C(C)=O)c(C)n2-c1ccc(C(C)=O)cc1,inactive: -21.1%,–
CCOc1ccc(CN(C)c2nc(-c3cccnc3)nc3ccccc23)cc1OC,inactive: -35.2%,–
O=C(c1ccc2oc(CCCc3ccccc3)nc2c1)N1CCCC1,–,active: 9.2 µM
CCOc1ccc(-n2ccnc(SCC(=O)Nc3cccc(OC)c3)c2=O)cc1,38.4%,–
O=C(CCS(=O)(=O)c1ccc(Cl)cc1)Nc1nc(-c2cccnc2)cs1,59.4%,–
CCCCC(=O)Nc1ccc2oc(-c3cccnc3)nc2c1,29.3%,–
O=C(Nc1c2c(nn1-c1ccccc1)CS(=O)C2)c1ccc(S(=O)(=O)N2CCOCC2)cc1 (configuration not stated),15.9%,–
N#CC1=C(N)N2C(=C(C#N)C13CCCCC3)SC1CCCCC12O (configuration not stated),-21.3%,–
O=C1C2C3C=CC(C3)C2C(=O)N1c1ccc(-c2nc3ccccc3o2)cc1 (configuration not stated),–,active: 1.84 µM
COc1ccc(C(=O)n2nnc3ccccc32)cc1Br,2.62%,–
COC(=O)c1[nH]c2ccccc2c1NC(=O)CN1CCN(c2cccc(OC)c2)C(C)C1 (configuration not stated),inactive: -28%,–
CCCCCCOC(=O)c1ccc(OC(=O)c2cccnc2)cc1,–,active: 18.4 µM
Cc1c(Cl)ccc2c1NC(=O)[C@]21N[C@@H](Cc2ccccc2)[C@H]2C(=O)N(c3ccc(F)cc3)C(=O)[C@H]21,-16.5%,–
CCOC(=O)c1c(NC(=O)C2COc3ccccc3O2)sc(C(C)=O)c1C (configuration not stated),1.16%,–
Cc1ccc(CC(=O)Nc2cccc(C)n2)cc1,–,active: 20.6 µM
CCc1cc(C(=O)N2CCN(C(=O)c3ccco3)CC2)sc1C,49.9%,–

# Exported with tabs: entries from further up
SMILES	activity change, positive = activation	Potency
CCCCCCOC(=O)c1ccc(OC(=O)c2cccnc2)cc1	–	active: 18.4 µM
Cc1c(Cl)ccc2c1NC(=O)[C@]21N[C@@H](Cc2ccccc2)[C@H]2C(=O)N(c3ccc(F)cc3)C(=O)[C@H]21	-16.5%	–

# The listing continues:

SMILES,"activity change, positive = activation",Potency
Cc1ccc(-c2nc(-c3ccncc3)no2)cc1,–,active: 3.66 µM
CCC(C)(C(=O)NC1CCCCC1)N(Cc1cccs1)C(=O)c1ccccn1 (configuration not stated),-9.07%,–
CCCOC(=S)NC(=O)c1sc2ccccc2c1Cl,-2.88%,–
O=C(COc1ccc(Cl)cc1Cl)NC1CCSC1=O (configuration not stated),–,active: 16.4 µM
CCOC(=O)c1ccc(NC(=O)N2CCCCCC2)cc1,–,active: 5.8 µM
C/C(=N\NC(=O)c1ccc(F)cc1)c1ccccn1,–,active: 5.17 µM
COC(=O)c1c(C)n(-c2ccc(OC)cc2)c2ccc(O)cc12,inactive: -25.3%,–
O=C(Nc1cccc(-c2ccc(N3CCCCC3)nn2)c1)c1ccc(Br)o1,–,active: 2.31 µM
COc1ccc(-c2nsc3c(N4CCCC4)ncnc23)cc1,42.2%,–
O=C(N/N=C/c1ccccn1)c1ccc(S(=O)(=O)N2CCCCCC2)cc1,4.61%,–
CCC(C)(C(=O)NC1CCCCC1)N(CC1CCCO1)C(=O)Cc1cccs1 (configuration not stated),-2.19%,–
Cc1cc(=O)oc(C)c1C(=O)NCc1c(F)cc(F)cc1F,23.6%,–
COc1ccccc1C(c1c(N)n(C)c(=O)n(C)c1=O)C(C)[N+](=O)[O-] (configuration not stated),14.6%,–
O=C(NCCO)c1cccc(Cl)c1,14.1%,–
O=C(N/N=C/c1coc2ccc(Cl)cc2c1=O)c1ccc(O)cc1,inactive: -20.4%,–
O=C(Nc1nccs1)c1cc2c(s1)CCCCC2,-15.6%,–
COc1cccc(/C=C/C(=O)Nc2ccccc2N2CCOCC2)c1,-10.3%,–
CCOCCCNC(=O)c1ccc2c(c1)ncn2-c1ccc(CC)cc1,3.69%,–
CCOc1cc(S(=O)(=O)n2cc(-c3ccc(F)cc3)c(N)n2)cc(OCC)c1OCC,inactive: -22%,–
CSCC[C@H](NC(=O)OC(C)(C)C)C(=O)N1CCC(C(=O)N[C@@H](C)C(=O)NCc2ccc(F)cc2)CC1,10.9%,–
O=C(O)c1cccc(COc2ccc(CO)cc2Cl)c1,-55.6%,–

SMILES,"activity change, positive = activation",Potency
O=C1c2c(O)ccc(O)c2C(=O)c2c(NCCNCCO)ccc(NCCNCCO)c21,inactive: -58.8%,–
CCOC(=O)c1cnc(Nc2nc3ccccc3o2)nc1C,-10.1%,–
Cc1ccc(C)c(NC(=O)CN(C)C(=O)c2oc3c(Cl)cccc3c2C)c1,-9.52%,–
COc1cccc(NC(=O)CSc2nnc(-c3ccc(C)cc3)o2)c1,–,active: 10.3 µM
O=S1(=O)C=C(Sc2nc3ccccc3s2)c2ccccc21,inactive: -44.7%,–
Cn1c(-c2ccc(F)cc2)cnc1NCc1ccccc1,29.6%,–
CS(=O)(=O)c1cnc2c(-c3ccsc3)cnn2c1N,–,active: 20.6 µM
O=C(Cn1c(=O)n(-c2ccc(F)cc2)c(=O)c2sccc21)c1ccccc1,3.03%,–
Cc1nnc(NC(=O)c2ccc3ccccc3c2)s1,–,active: 4.61 µM
O=c1nc(N/N=C/c2c[nH]c3ccccc23)cn[nH]1,–,active: 10.3 µM
N/C(=N\OC(=O)c1ccc(Cl)cc1)c1ccn[nH]1,–,active: 2.59 µM
CCOc1cc(Br)c(CN2C(=O)NC3(CCCCCC3)C2=O)cc1OCC,inactive: -37.4%,–
Cn1c(=O)c2c(ncn2CC(=O)N2CCN(c3ccccc3)CC2)n(C)c1=O,3.46%,–
O=C(c1ccccc1)C1CCN(C(=O)c2c(F)cccc2F)CC1,0.0707%,–
COc1ccc(OCc2cccc(C(=O)O)c2)cc1,-50.2%,–
CC(C)C(C(=O)NCc1ccco1)N(C(=O)CNS(=O)(=O)c1ccccc1)C1CCCC1 (configuration not stated),51.6%,–
CC1CN(c2ncnc3c2cnn3-c2ccc(Cl)cc2)CC(C)O1 (configuration not stated),–,active: 2.06 µM
Cc1sc(NC(=O)c2ccco2)nc1-c1ccc2c(c1)CC(C)N2C(=O)C1CC1 (configuration not stated),inactive: -31.2%,–
CCc1ccc(/C(C)=N/NC(=O)c2ccc(-n3cnnn3)cc2)cc1,18.5%,–
COc1ccc(-c2nnn(CC(=O)N3CCOCC3)n2)cc1,39.1%,–
